Publication PMC11265165
These are yes or no findings as the source states them, for the method shown. In cells and extracts the contact can be indirect. Some entries that bind do so weakly or less than the wild type.

Sequences of proteins named here, by UniProt entry; tags and fusion partners are left off. Residues count along the entry.
UniProt O43699, residues 27-453: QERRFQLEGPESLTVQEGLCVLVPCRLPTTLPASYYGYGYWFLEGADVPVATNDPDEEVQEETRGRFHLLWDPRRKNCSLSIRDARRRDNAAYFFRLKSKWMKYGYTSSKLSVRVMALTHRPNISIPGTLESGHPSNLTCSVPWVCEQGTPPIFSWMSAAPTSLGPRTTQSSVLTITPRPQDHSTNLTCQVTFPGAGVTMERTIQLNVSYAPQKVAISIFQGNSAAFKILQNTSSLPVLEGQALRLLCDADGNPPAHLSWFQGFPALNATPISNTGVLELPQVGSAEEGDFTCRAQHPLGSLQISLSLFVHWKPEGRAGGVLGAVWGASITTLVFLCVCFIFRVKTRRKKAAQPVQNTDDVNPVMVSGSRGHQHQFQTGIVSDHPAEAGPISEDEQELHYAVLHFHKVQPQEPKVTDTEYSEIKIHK
UniProt P29350: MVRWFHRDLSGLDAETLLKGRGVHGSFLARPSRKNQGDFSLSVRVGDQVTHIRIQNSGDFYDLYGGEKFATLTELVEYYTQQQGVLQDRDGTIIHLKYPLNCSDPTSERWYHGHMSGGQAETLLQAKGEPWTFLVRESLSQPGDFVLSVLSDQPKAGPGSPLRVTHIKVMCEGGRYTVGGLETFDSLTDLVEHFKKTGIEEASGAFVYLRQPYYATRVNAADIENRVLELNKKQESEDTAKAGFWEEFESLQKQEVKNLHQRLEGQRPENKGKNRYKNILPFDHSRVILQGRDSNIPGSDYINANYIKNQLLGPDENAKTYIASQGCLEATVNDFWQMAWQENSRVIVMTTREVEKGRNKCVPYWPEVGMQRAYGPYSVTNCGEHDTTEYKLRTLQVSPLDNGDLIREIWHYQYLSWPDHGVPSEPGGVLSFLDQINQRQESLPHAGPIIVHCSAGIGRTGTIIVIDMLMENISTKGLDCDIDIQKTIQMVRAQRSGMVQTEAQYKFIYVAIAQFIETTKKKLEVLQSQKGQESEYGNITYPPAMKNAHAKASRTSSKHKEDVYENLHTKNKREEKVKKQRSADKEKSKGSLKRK

Target: Flag-tagged Siglec-6 (human) (UniProt O43699)
Assay: co-IP; HTR-8/SVneo cells with Flag-tagged Siglec-6, lysed in IP lysis buffer; lysates incubated with anti-flag, anti-SHP1 or anti-SHP2 antibodies overnight at 4 °C, protein A/G beads, washed five times, Western blot

“SHP1 (from UniProt P29350 1-595) (enzyme)” was tested, and the binding was “binds”.
